From PubChem BioAssay AID2685 (National Center for Advancing Translational Sciences (NCATS), 2010)
Some of the results follow. These are further read-outs of the screen, such as a control signal, another cell line or another target. No call is given for them. Most of these compounds were active or inconclusive in the main read-out, so they are no random draw. Words in brackets tell the shape of the fitted curve; partial curves, single points and poor fits give uncertain potencies.

Assay: qHTS Assay for Lipid Storage Modulators in Drosophila S3 Cells;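 for cell number change: cells counted by Cell Tracker Red CMTPX staining in the red channel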
Details: BODIPY lipid droplet fluorescence, 18-24 h; for cell number change: measured here: cell count max response, cells fed with added oleic acid
Procedure, shortened: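 Laser-scanning cytometry quantifies lipid droplet accumulation (500–530 nm total intensity; droplet/cell object ratio) in oleic acid-fed (400 uM added) Drosophila S3 cells treated with a concentration series. 20 uM Triacsin C defined 100% inhibition.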

[1] = measured here: cell number channel AC50, cells fed with added oleic acid
[2] = measured here: lipid fluorescence (Fed channel) AC50, cells fed with added oleic acid

SMILES | cell number change | AC50 [1] | AC50 [2]
O=C1CC(N2CCN(c3ncccn3)CC2)C(=O)N1CCc1ccccc1 (configuration not stated) | -16.2% | 6510 nM [falling, single point] | 6510 nM [falling, single point]
COc1cc(-c2nc3ccccn3c2NCc2ccccc2)ccc1SC1CCCCC1 | -65.7% | 20600 nM [falling, partial curve] | –
CCCCOC(=O)Nc1cccc(Cl)c1C | 14.3% | – | –
Cc1ccc(NC(=O)COC(=O)CCc2nc3ccccc3n2-c2ccccc2)c(C)c1 | 15.7% | – | 517 nM [rising, single point]
CC(CNS(=O)(=O)c1ccccc1)Sc1nncn1C (configuration not stated) | 32.6% | – | 7.31 nM [falling, full curve, poor fit]
CSC1=C(C#N)C(CC(C)C)C2=C(CCCC2=O)N1 (configuration not stated) | 1.29% | – | 116 nM [falling, full curve, poor fit]
Cc1cc(C)c(S(=O)(=O)N2CCCOC2CNC(=O)C(=O)NCc2ccco2)c(C)c1 (configuration not stated) | -12.9% | 5.8 nM [rising, full curve, poor fit] | –
Cc1cc(=O)[nH]c(SCC(=O)Nc2nnc(CC(C)C)s2)n1 | 4.01% | – | 14600 nM [rising, partial curve]
O=C(CCc1c[nH]c2ccccc12)NCc1ccc2c(c1)OCO2 | -14.2% | – | 20600 nM [rising, partial curve, poor fit]
Cc1ccc(S(=O)(=O)NCCC(=O)Nc2nnc(C)s2)cc1 | 16.2% | – | 20600 nM [rising, single point]
Cc1ccccc1NC(=O)C1CCN(S(=O)(=O)c2cccs2)CC1 | -3.01% | 36.6 nM [rising, partial curve, poor fit] | 4.61 nM [rising, full curve, poor fit]
COC(=O)c1cc(Cl)c(NC(=O)/C=C/c2ccc(OC)cc2)cc1OC | -12.2% | 5170 nM [rising, single point] | –
O=C(N/N=C/c1ccc(Cl)cc1)c1cc2c(s1)-c1ccccc1CC2 | 35.5% | 731 nM [rising, partial curve] | –
CC1CCC(NS(=O)(=O)c2ccc3c(c2)CC(=O)N3)CC1 (configuration not stated) | -7.37% | – | 23100 nM [rising, single point]
CC(=O)NNc1ncnc2c1cnn2-c1ccc(C)c(Cl)c1 | -12.8% | 103 nM [falling, full curve, poor fit] | –
COC(=O)CC/C(C)=N\Nc1ccc([N+](=O)[O-])cc1[N+](=O)[O-] | -28.3% | – | 6510 nM [falling, single point]
COC(=O)c1cc(S(=O)(=O)Nc2ccc(C)c(F)c2)c[nH]1 | -0.599% | – | 580 nM [falling, full curve, poor fit]
CCOc1ccc(Nc2oc(-c3ccccc3Cl)nc2C#N)cc1 | 14.5% | – | 8200 nM [rising, partial curve]
CCCOc1ccc(CNC(=O)C2CCN(c3nnc(N4CCCC4=O)s3)CC2)cc1 | 13.3% | – | 3260 nM [rising, partial curve]
O=C(c1ccc2c(c1)OCCO2)N1CCCCC1 | -193% | 20600 nM [falling, partial curve] | –

As entered above:
AC50 [1], O=C(N/N=C/c1ccc(Cl)cc1)c1cc2c(s1)-c1ccccc1CC2 reads 731 nM [rising, partial curve]
cell number change, CC1CCC(NS(=O)(=O)c2ccc3c(c2)CC(=O)N3)CC1 (configuration not stated) reads -7.37%
AC50 [2], O=C1CC(N2CCN(c3ncccn3)CC2)C(=O)N1CCc1ccccc1 (configuration not stated) reads 6510 nM [falling, single point]

Further compounds:

SMILES | cell number change | AC50 [1] | AC50 [2]
COc1cccc(-c2cc3c(=O)n(-c4ccccc4)c(=S)[nH]c3s2)c1 | -20.8% | – | 291 nM [falling, full curve, poor fit]
Cc1ccc(S(=O)(=O)Nc2ccc3oc(=O)sc3c2)c(C)c1 | -115% | – | 23100 nM [falling, single point]
COc1ccc(NC(=O)c2ccc([N+](=O)[O-])s2)c([N+](=O)[O-])c1 | -45.6% | 1840 nM [falling, full curve] | 146 nM [falling, full curve, poor fit]
CCN(Cc1ccccc1)c1c(C(=O)O)cnc2c1cnn2C | 6.19% | – | 1160 nM [rising, single point]
CCOC(=O)C1CCN(C(=O)CCc2nc3ccccc3[nH]2)CC1 | 139% | 20600 nM [rising, single point] | 7310 nM [rising, partial curve]
O=S(=O)(c1cccc(S(=O)(=O)N2CCCC2)c1)c1cccc(S(=O)(=O)N2CCCC2)c1 | 2.67% | – | 103 nM [falling, full curve, poor fit]
COc1ccc(S(=O)(=O)N2CCN(C(=O)c3c(C)nn(-c4ccccc4)c3Cl)CC2)cc1 | 10.8% | – | –
O=c1cnnc(Nc2ccccc2)[nH]1 | -34.3% | 731 nM [falling, full curve, poor fit] | –
CC1CN(C(=O)NCc2ccccc2)c2cc(Cl)ccc2O1 (configuration not stated) | 35.5% | 731 nM [rising, full curve] | –
Cc1cc(SCC(=O)OCC(=O)NCC2CCCO2)c(C)cc1Br (configuration not stated) | -24.8% | – | 651 nM [falling, full curve, poor fit]
CCc1cc(C(=O)N=Nc2c(O)[nH]c3ccc([N+](=O)[O-])cc23)c2ccccc2n1 | 6.33% | – | –
CCOc1ccc(/C=N/NC(=O)c2cc3c(OC)cc(OC)cc3[nH]2)cc1OC | 1.97% | – | 103 nM [rising, full curve, poor fit]
COc1ccc(C(=O)Nc2ccc(S(=O)(=O)Nc3cnc4ccccc4n3)cc2)cc1 | 15.2% | – | –
Cc1c(C2C(C#N)=C(N)N(c3cccc([N+](=O)[O-])c3)C3=C2C(=O)CCC3)cnn1C (configuration not stated) | 15.8% | – | 29100 nM [rising, single point]
Cc1ccc(C(=O)Oc2csc(=S)n2C(=O)c2ccc(C)cc2)cc1 | -13.5% | – | 920 nM [falling, full curve, poor fit]
COc1ccc(NC(=O)c2ccco2)cc1NC(=O)COc1ccccc1[N+](=O)[O-] | 11.1% | – | 14600 nM [falling, single point]
CC(OC(=O)Cn1[nH]c(=O)c2ccccc2c1=O)C(=O)Nc1ccccc1[N+](=O)[O-] (configuration not stated) | – | – | 29100 nM [rising, single point]
Cc1ccc(C(=O)c2sc3c(c2N)c(=O)[nH]c(=O)n3CCc2ccccc2)cc1 | 12.1% | 4610 nM [falling, single point] | 517 nM [rising, full curve]
CCCc1nc2ccc(NC(=O)NCCC(=O)OCC)cc2c(=O)n1Cc1cccc(Cl)c1 | 20.4% | – | 16400 nM [falling, partial curve]
CCOC(=O)C1(CC2CCCCO2)CCN(S(=O)(=O)c2ccsc2)CC1 (configuration not stated) | -12.9% | – | 820 nM [falling, full curve, poor fit]

SMILES | cell number change | AC50 [1] | AC50 [2]
C=CCNCCCCOc1ccc(OCC)cc1 | 19.3% | – | –
O=C(O)CCS(=O)(=O)c1cc(Br)cc2c1N(C(=O)C1CC1)CC2 | 12.4% | – | –
COc1ccccc1/C=C/C(=O)OCC(=O)Nc1c(F)cccc1F | – | – | 1460 nM [rising, single point]
O=C1CC[C@@H](CN(Cc2ccccn2)Cc2nc(Cc3ccccc3)no2)N1 | 18.1% | – | 4110 nM [rising, full curve, poor fit]
CCCn1c2ccccc2c2nc3ccccc3nc21 | -27.2% | – | 820 nM [rising, full curve]
CC1CCC(NC(=O)c2cc3c(=O)n(C)c4ccccc4c3n2C)CC1 (configuration not stated) | -3.98% | – | –
c1cncc(-c2nc(NCc3cccs3)c3ccccc3n2)c1 | 25.9% | – | 36.6 nM [rising, full curve]
CCCNC(=O)NC(=O)COC(=O)CC(NC(N)=O)c1ccc(Cl)cc1 (configuration not stated) | 5.81% | – | –
CCN(CC)c1ccc(C(=O)N/N=C(\C)c2cccnc2)cc1 | – | – | 16400 nM [rising, single point]
O=C(c1ccc([N+](=O)[O-])cc1)N1CCC(Cc2ccccc2)CC1 | 83.3% | 9200 nM [rising, partial curve, poor fit] | 13000 nM [rising, partial curve, poor fit]
N#C/C(=C\C=C\c1ccccc1)C(=O)NCc1ccco1 | -15.6% | – | –
C=CCN1C(=O)/C(=C/c2ccc(O)cc2)S/C1=N/c1nccs1 | – | – | 3260 nM [rising, full curve, poor fit]
CCOC(=O)[C@@H]1[C@H]2COc3cc(OC)ccc3[C@@H]2N2C(=O)N(c3cccc(Cl)c3)C(=O)[C@@]12C | -0.299% | – | –
COc1ccc(C2=NN(C(=O)c3ccccc3)C(c3ccc(OC)c(OC)c3)C2)cc1OC (configuration not stated) | 8.33% | – | 651 nM [rising, partial curve, poor fit]
COc1ccc(/C=C/C(=O)c2ccc(C(=O)/C=C/c3ccc(OC)c(OC)c3)cc2)cc1OC | 457% | 25900 nM [rising, partial curve] | 16400 nM [rising, partial curve]
COCCNC(=O)c1ccc(N2CC3CC(C2)c2cccc(=O)n2C3)c(NC(=O)c2ccc(F)cc2)c1 (configuration not stated) | 82.5% | 25900 nM [rising, partial curve, poor fit] | –
Cc1cc(C)c(C#N)c(SCC(=O)Nc2ccc3c(c2)OCO3)n1 | – | 1160 nM [rising, full curve] | 1160 nM [rising, full curve]
CC1CCCCC1NCC#CCOc1ccc(Cl)cc1 (configuration not stated) | -5.1% | – | –
CC1CC(=O)NN=C1c1ccc(NCCO)c([N+](=O)[O-])c1 (configuration not stated) | – | 731 nM [falling, full curve, poor fit] | 731 nM [falling, full curve]
CCOC(=O)C1(C)NC(c2ccco2)C2C(=O)N(C)C(=O)C21 (configuration not stated) | 7.04% | – | 16.4 nM [falling, full curve]
